# Reference: the supplement of paper PMC10338343
# ± gives the standard deviation. The list shows a part of the results. Many of these values have a large error.
# Tested on: EfPiwi piRISC loaded with L1MC piRNA (26 nt)
# Assay: pre-steady-state target cleavage rate (min^-1); guide: L1MC piRNA 5'p-UAACUAAAUACUAUGCAAGCUGUAGG; MIWI and MILI are mouse PIWI proteins and EfPiwi is from a freshwater sponge; tags in brackets are library labels; higher = faster piRNA-guided slicing of the target
# Conditions: auxiliary factor: 500 nM Ephydatia muelleri Gtsf1
# Protocol: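 Cleave-'n-Seq: a library of target RNAs (target site in constant flanks) at […] was incubated with 1 nM active freshwater sponge Ephydatia fluviatilis Piwi piRISC (synthetic 5'-monophosphorylated piRNA guide) with or without 500 nM EmGtsf1 at 33 °C for 1 min to 16 h. Uncleaved targets were sequenced and the pooled three trials fitted to a burst-and-steady-state model to give the pre-steady-state cleavage rate (min^-1). Sequence is the target site only. Fits with R² ≤ 0 are excluded.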
row,Sequence,pre-steady-state target cleavage rate
1,UCCUGGAUGUCGAAGCAUAGUAUAUACUUA,0.000214 ± 0.016
2,UCCUGGAUGAGCUUGCAUAGAUAUUAGAAA,0.000345 ± 0.0095
3,UCCUCCAUCAGCUUGCAUAGUAUUUACAAA,0.00282 ± 0.0024
4,UCCUGGAUCAGCUUGCAUAGUAAUUUAGUUA,0.00371 ± 0.0025
5,UCCUGGUACAGCUUGCAUAGAAUUUAGAAA,0.00253 ± 0.0021
6,UCCUGGAACAGCUUGCAUAGUAUUUACUAA,0.00102 ± 0.0043
7,UCCUGGAUGUCGUUGCAUAGUAUCUAGUUA,0.00252 ± 0.0039
8,UCCUGGAUGUGCUUGCAUAGUAAUUUAGUUA,0.00055 ± 0.015
9,UCCUGGAACAGCUUGCAAUCAUAAAUCAAA [g14:g23:cont:t1A],0.000353 ± 0.011
10,UCCUGGAUGUCGUUGCAAAGUAUUUAGAUA,0.00108 ± 0.0069
11,UCCUCCUACAGCUUGCAUAGAUUUUAGUUA,0.0032 ± 0.002
12,UCCUGGAUGUCCUUGCAUAGUUAAAUCAAA [g10:g19:cont:t1A],0.00113 ± 0.0063
13,UCCUGGAUGAGCUUGCAUAGAAUUUUGUUA,0.00127 ± 0.0031
14,UCCUGGAACAGCUUGCAUAGUAAUUAGAUA,0.00318 ± 0.0015
15,UCCUGGAUGAGCUUGCAAUCUAUUUACAAA,0.000238 ± 0.016
16,UCCUGGAUCAGCUUGCAUACAAUUUUCAAA,0.00029 ± 0.014
17,UCCUCCUACAGCCUGCAUAGUAUUUAGUUA,0.0698 ± 0.018
18,UCCUGGAUGUCGUUGCAUAGUAUUAUGUUA,0.00025 ± 0.015
19,UCCUGGAAGAGCUUGCAUAGUAUUUUCAAA,0.00137 ± 0.0022
20,UCCUGGAUGUCGUUGCAUUGAAUUUAGUUA,0.000212 ± 0.015
21,UCCUGGAUGUGCUUGCAUAUAUUUAGUUA,0.000735 ± 0.0075
22,UCCUGGAUGUCGAACCAUAGUAUUUUCAAA [g6:g15:cont:t1A],0.00033 ± 0.021
23,UCCUGGUACAGCUUGCAUAGUAUUUAGUCUA,0.00521 ± 0.0031
24,UCCUGGAUGACCUUGCAUACUAUUUAGUUA,0.00269 ± 0.0029
25,UCCUCCUACACGAUGCAUAGUAUUUAGUAA,0.00453 ± 0.0027
26,UCCUGGUACACCUUGCAUAGUAUAUAGUUA,0.00195 ± 0.0034

# Same assay, conditions: auxiliary factor: none (no Gtsf1)
row,Sequence,pre-steady-state target cleavage rate
1,UCCUGGAUGUCGAAGCAUAGUAUAUACUUA,< 0.0001
2,UCCUGGAUGAGCUUGCAUAGAUAUUAGAAA,0.000575 ± 0.012
3,UCCUGGAUCAGCUUGCAUAGUAAUUUAGUUA,0.00162 ± 0.0071
4,UCCUGGAACAGCUUGCAUAGUAUUUACUAA,0.00021 ± 0.04
5,UCCUGGAUGUGCUUGCAUAGUAAUUUAGUUA,0.00434 ± 0.0045
6,UCCUGGAACAGCUUGCAAUCAUAAAUCAAA [g14:g23:cont:t1A],0.00056 ± 0.02
7,UCCUGGAUGUCGUUGCAAAGUAUUUAGAUA,0.000268 ± 0.036
8,UCCUCCUACAGCUUGCAUAGAUUUUAGUUA,0.000839 ± 0.006
9,UCCUGGAUGAGCUUGCAUAGAAUUUUGUUA,0.000988 ± 0.0099
10,UCCUGGAACAGCUUGCAUAGUAAUUAGAUA,0.000276 ± 0.01
11,UCCUGGAAGAGCUUGCAUAGUAUUUUCAAA,0.000527 ± 0.015
12,UCCUGGAUGUGCUUGCAUAUAUUUAGUUA,0.000717 ± 0.013
13,UCCUCCUACACGAUGCAUAGUAUUUAGUAA,0.000575 ± 0.011
14,UCCUGGUACACCUUGCAUAGUAUAUAGUUA,0.000298 ± 0.025
